SMILES strings stand for the structures. This is one part of the list. Shown are side measurements of this screen, not its main read-out; they come without a call. Most of these compounds were active or inconclusive in the main read-out, so they are no random draw. Potencies come from curve fits of mixed quality, noted in brackets.

The assay in a line: qHTS Assay for Lipid Storage Modulators in Drosophila S3 Cells.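 On cell number change: cells counted by Cell Tracker Red CMTPX staining in the red channel.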 As to conditions: BODIPY lipid droplet fluorescence, 18-24 h; for cell number change: measured here: cell count max response, cells fed with added oleic acid. Put shortly: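 Drosophila S3 cells got compounds at several concentrations plus oleic acid (400 uM solution). Laser-scanning cytometry with 488 nm excitation read lipid droplets at 500-530 nm and cells at 575-640 nm. Percent activity was relative to 20 uM Triacsin C.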

Setting [1] is: measured here: cell number channel AC50, cells fed with added oleic acid.
Setting [2] is: measured here: lipid fluorescence (Fed channel) AC50, cells fed with added oleic acid.

With `Nc1nc(-c2ccccc2)cc(N2CCCCC2)n1`, the cell number change was determined as 22.3%. Also, the AC50 under setting [1] was 3.66 µM [rising, full curve, poor fit].
Turning to `Cc1c(C(=O)N2CCC(C)CC2)sc2ncnc(N3CCN(c4ccccc4)CC3)c12`, the AC50 runs as follows: under setting [1], 1.16 µM [rising, partial curve]; under setting [2], 1.46 µM [rising, partial curve].
Turning to `Cc1ccc2oc(=O)c3cc(C(=O)NCCCN4C(C)CCCC4C)sc3c2c1` (stereo not given), the cell number change is 6.13%. Also, under setting [2], the AC50 was 29.1 µM [rising, single point].
`CC1(C)CC(=O)C/C(=N/NC(=O)c2ccc(-c3ccccc3)cc2)C1`: the cell number change worked out at 34.8%. Besides, the AC50 under setting [1] was 0.13 µM [rising, full curve, poor fit].
With `O=S(=O)(Nc1ccon1)c1ccc(F)c(F)c1`, the cell number change amounted to 0.348%. Also, the AC50 under setting [2] was 0.461 µM [falling, full curve, poor fit].
With `Cc1ccc(CN2CCN(Cc3cnn(-c4ccc(F)cc4)c3)CC2CCO)o1` (stereo not given), the cell number change was 30.1%.
As for `O=C(Nc1ccsc1C(=O)N1CCCC1)c1ccccc1`, the cell number change came out at 57.1%. Also, under setting [1], the AC50 is 29.1 µM [rising, single point]. The AC50 under setting [2] is 18.4 µM [rising, single point].
`COc1ccc(C(=O)CCN2CCN(c3ccc(OC)cc3)CC2)cc1`: the cell number change is 3.42%.
Same read-out and setting: under `COc1ccc(N2CCN(S(=O)(=O)c3c(C)n(C)c(=O)n(C)c3=O)CC2)cc1` stands 1.17%; under `CCOc1ccc(NC(=S)N/N=C(\C)Cc2ccc(OC)cc2)cc1`, 4.16%.
For the compound `CC(C)(O)C#Cc1ccc(C(=O)N2CCC(C(N)=O)(N3CCCCC3)CC2)o1`, the cell number change is -1.66%. Also, the AC50 under setting [2] is 13 µM [rising, partial curve].
With `CC(OC(=O)c1oc2ccccc2c1COc1ccccc1)C(=O)NC(N)=O` (stereo not given), the cell number change is -12.1%. Under setting [2], the AC50 is 0.146 µM [rising, full curve, poor fit].
Turning to `O=C(Nc1nn(Cc2ccc(Cl)cc2)cc1Br)c1ccc(COc2ccccc2Cl)o1`, the cell number change is 27.5%. Also, the AC50 under setting [2] was 29.1 µM [rising, single point].
For the compound `COCCn1c(=S)[nH]c2cc(C(=O)N3CCN(Cc4ccc5c(c4)OCO5)CC3)ccc2c1=O`, the cell number change is -19.1%. For the same compound, under setting [2], the AC50 is 2.31 µM [falling, partial curve, poor fit].
On to `COc1ccc(N=C2C(=O)Nc3ccccc32)cc1`, for which the cell number change came out at 1.21%. Further, under setting [2], the AC50 was 6.51 µM [rising, single point].
As for `CC(C)(C)OC(=O)NCCCCCc1nnc(SCc2ccccc2F)o1`, the cell number change worked out at 3.15%. In addition, the AC50 under setting [2] is 2.31 µM [rising, partial curve, poor fit].
On to `O=C(O)CC(NC(=O)OCc1ccccc1)c1ccccc1` (stereo not given), for which the cell number change turned out to be 5.04%.
Consider `Cc1ccc(OCCn2cnc(Cl)c2Cl)cc1`, for which the cell number change was 9.16%. Under setting [2], the AC50 was 0.00411 µM [rising, full curve, poor fit].
Consider `CCN1CCCC1CNC(=O)c1ccc(CS(=O)(=O)c2ccccc2C)o1` (stereo not given), for which the cell number change was -5.03%.
On to `CCN(c1ccccc1)S(=O)(=O)c1ccc(OC)c(NC(=O)CNC)c1`, for which the cell number change came out at 9.23%. Moreover, the AC50 under setting [1] is 0.13 µM [falling, full curve, poor fit].
For the compound `CCOc1ccccc1CN1CCCC(CNS(=O)(=O)c2ccc(OC)cc2)C1` (stereo not given), the cell number change turned out to be 38.8%. For the same compound, the AC50 under setting [1] is 29.1 µM [rising, single point]. Also, the AC50 under setting [2] is 29.1 µM [rising, single point].
Regarding `COc1ccc(S(=O)(=O)N2CCCCC2)cc1NC(=O)c1cccnc1SC`, the cell number change was -29.9%. Under setting [2], the AC50 is 10.3 µM [falling, single point].
For `Cc1ccc(SCC(=O)NC2CCS(=O)(=O)C2)cc1C` (stereo not given), the cell number change was found to be 2.9%. In addition, the AC50 under setting [2] is 0.13 µM [falling, full curve, poor fit].
For the compound `FC(F)(F)c1cc(Sc2ccccc2)nc(-c2ccccn2)n1`, the cell number change was -28.1%. The AC50 under setting [2] is 0.00517 µM [falling, full curve, poor fit].
With `CCOc1ccc(-n2nc3ccc(N)cc3n2)cc1`, the cell number change was -1.75%. For the same compound, under setting [2], the AC50 is 7.31 µM [falling, full curve, poor fit].
On to `C=CCOc1cccc(C(=O)/C=C2/C(=O)Nc3ccccc32)c1`, for which the cell number change is -67.7%. Moreover, the AC50 under setting [1] was 29.1 µM [falling, single point]. The AC50 under setting [2] is 29.1 µM [falling, single point].
On to `O=C(CSc1nnc(CNC(=O)c2ccccc2)o1)NCC1CCCO1` (stereo not given), for which the cell number change is -10.5%. For the same compound, the AC50 under setting [2] was 18.4 µM [falling, single point].
With `CC(C)CC(=O)NC(=S)Nc1ccc(N2CCOCC2)c(Cl)c1`, the cell number change turned out to be 1.17%.
For the compound `O=C1CCC(C(=O)N(CCO)Cc2ccccc2)CN1CC1CCCCC1` (stereo not given), the cell number change was determined as 18.5%. Besides, the AC50 under setting [2] was 3.26 µM [falling, single point].
Turning to `COc1ccc(/C(O)=C2/C(=O)C(=O)N(CCN3CCNCC3)C2c2cccc([N+](=O)[O-])c2)cc1` (stereo not given), the cell number change was -2.38%. For the same compound, the AC50 under setting [2] is 0.58 µM [falling, single point].
Consider `O=C(c1ccc(F)cc1)N1CCC(C(=O)N2CCN(S(=O)(=O)c3cccc(F)c3)CC2)CC1`, for which the cell number change came to 18.3%. Also, the AC50 under setting [2] was 29.1 µM [rising, single point].
Take `COC(=O)C1CC(O)CN1C(=O)Nc1cccc(C(F)(F)F)c1` (stereo not given): the cell number change was -18.2%.
With `CC(=O)C1C(c2ccc(Cl)cc2)NC(=O)NC1(O)C(F)(F)F` (stereo not given), the cell number change is -60.3%. Besides, under setting [1], the AC50 was 8.2 µM [falling, partial curve]. Moreover, the AC50 under setting [2] is 18.4 µM [falling, partial curve].
On to `COc1ccccc1C(=O)Nc1ccnn1C1CCN(C)CC1`, for which the cell number change turned out to be 17.7%. The concentration at half-maximal activity (AC50) under setting [2] was 0.58 µM [rising, single point].
With `O=C(COC(=O)/C=C/c1cccc(C(F)(F)F)c1)NC1CCS(=O)(=O)C1` (stereo not given), the cell number change was 3.36%. The AC50 under setting [2] is 3.26 µM [rising, single point].
As to `CCCOC(=O)c1cccc(NC(=O)C(C)(C)C)c1`, the AC50 under setting [2] is 6.51 µM [falling, single point].
Take `CCOC(=O)CC(NC(=O)c1ccco1)c1ccc(OC)cc1` (stereo not given): the cell number change was determined as 36.9%.
Turning to `O=C(O)COc1ccc(/C=N/n2cnc3scc(-c4cccs4)c3c2=O)cc1`, the cell number change amounted to 150%. For the same compound, the AC50 under setting [1] is 16.4 µM [rising, partial curve]. For the same compound, under setting [2], the AC50 was 6.51 µM [rising, partial curve].
Take `COc1ccc(Cn2cc3c(-c4ccc(F)cc4)nnc-3c3cc(OC)c(OC)cc32)cc1`: the cell number change is -80.7%. Further, the AC50 under setting [1] is 13 µM [falling, partial curve]. In addition, the half-maximal activity concentration (AC50) under setting [2] was 7.31 µM [falling, partial curve].
`O=C(NCCNc1ccc([N+](=O)[O-])cc1)c1ccccc1F`: the cell number change is -15.3%.

What is called AC50 is the concentration at which the activity in the assay is half-maximal.

(Values after PubChem BioAssay AID2685 (National Center for Advancing Translational Sciences (NCATS), 2010).)
